Primary screen of a compound library

The chains behind the UniProt entries cited, without tags or fusion partners. Residues count along the entry.
UniProt Q4DA54, 1-478: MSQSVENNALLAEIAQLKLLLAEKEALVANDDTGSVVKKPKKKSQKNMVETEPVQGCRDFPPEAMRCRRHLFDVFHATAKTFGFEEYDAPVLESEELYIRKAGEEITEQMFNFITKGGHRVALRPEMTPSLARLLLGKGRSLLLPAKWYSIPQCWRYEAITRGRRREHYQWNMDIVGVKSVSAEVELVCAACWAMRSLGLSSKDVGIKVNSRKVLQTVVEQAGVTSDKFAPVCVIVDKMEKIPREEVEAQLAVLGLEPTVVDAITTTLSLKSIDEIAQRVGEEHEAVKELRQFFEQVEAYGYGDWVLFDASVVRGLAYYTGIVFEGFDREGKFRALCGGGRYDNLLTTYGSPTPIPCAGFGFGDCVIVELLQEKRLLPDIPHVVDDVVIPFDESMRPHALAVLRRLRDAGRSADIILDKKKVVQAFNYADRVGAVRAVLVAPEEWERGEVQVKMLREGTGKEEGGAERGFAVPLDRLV

Data taken from ChEMBL document CHEMBL3988442, “University of Dundee, Small-Polar-MMV Screening Library” (2021).

The filed quantity is “Percent Effect” (%).
The record does not define 0% and 100%; most values in the screen are far below 50% and negative numbers occur (in some assays of this library far below -100).
This is an unselected part of the compounds tested.

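Enzyme assay of histidyl-tRNA synthetase; the read-out is not stated. Target: Histidine-tRNA ligase, Trypanosoma cruzi CL Brener (UniProt Q4DA54). Tested at 30 µM. The record gives no direction; compounds that gave an IC50 in retests scored well above the rest, so higher reads as stronger inhibition. Size under these conditions: about 69,000 compounds, about 31 of them at 50% or above in at least one test.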

structure | Percent Effect
CN(C)c1ccccc1CN1CCCC(N2CCCC2=O)C1 (centres unmarked) | 6.667
CCc1nc(CN(C(C)=O)C2CCN(CCc3ccccn3)C2)no1 (centres unmarked) | 2.857
O=c1c2cccnc2cnn1CC(O)c1ccc(Br)cc1 (centres unmarked) | 0.5291
COc1ccc(C(=O)N2CC[C@H](CO)[C@H](O)C2)c(C)c1 | -0.8264
Cn1cc(CN2C[C@@H]3CN(Cc4ccoc4)CCO[C@@H]3C2)cn1 | 1.087
Cc1nc(CN2CCN(CCOc3ccc(C(C)C)c(C)c3)CC2)no1 | 0.578
CN1CCC2(CC1)CN(Cc1ccc(C3CCCCO3)o1)CCCN2C (centres unmarked) | 10.98
CC(O)CN1CCC(CN(C)Cc2ccc(C(N)=O)cc2)CC1 (centres unmarked) | 5.732
CN(Cc1cn2c(n1)CN(Cc1ccsc1)CC2)Cc1ccco1 | 5.102
COCCS(=O)(=O)Nc1cc(Cl)ccn1 | 7.006
CCCc1nnc(NCCc2noc(C3CCCC3)n2)o1 | 1.98
O=C(c1nc(Cc2c[nH]c3ccccc23)no1)N1CCCCC1 | 5.941
Cc1noc(C)c1CCC(=O)N1CCn2cccc2C1C (centres unmarked) | 2.591
Cc1ccccc1CN(CCN(C)C)Cc1ccc(O)c(C(=O)O)c1 | 4
CC(C)c1nc(C2CCCNC2)no1 (centres unmarked) | 0
Cn1cc(CN2CCCCC2c2ccc(-c3cnn(C)c3)nc2)cn1 (centres unmarked) | 4.981
COCCOCC(=O)N1CCc2cc(Cl)cc(Cl)c2C1 | 3.139
COCCNC(=O)c1cc(S(=O)(=O)N2CCCCC2)cs1 | 2.479
CCc1ncc(C(=O)N2CCOCC2CC(=O)c2ccccc2)s1 (centres unmarked) | 3.093
Cc1nc(CNCC2CN(C3CC3)CCO2)cs1 (centres unmarked) | 4
O=c1[nH]c(-c2ccccc2F)nc2c1CCNC2 | 4.712
CC(C)(CN)NS(=O)(=O)c1c(F)cccc1F | 8.374
CCC(C(=O)NC1CCCC1)n1ccc2ncccc2c1=O (centres unmarked) | 4.741
Nc1nnc(SCc2cc(=O)n3c4c(sc3n2)CCCC4)[nH]1 | 5.941
CCCc1nc(C(=O)N2CCn3nc(C(=O)OC)cc3C2)cs1 | 5.025
O=C(C[C@@H]1COC[C@H]2CN(Cc3ccc(F)cc3)C[C@@H]12)N1CCCC1 | -2.439
CC(=O)C(Cc1ccccc1)NC(=O)CSc1nncn1C (centres unmarked) | 9.278
CC(=O)NC[C@]1(O)CCN(C(=O)c2ccc(F)c(Cl)c2)C[C@H]1O | 7.692
O=C(Cc1cnc(-c2c(Cl)cccc2Cl)s1)N1CCOCC1 | 3.96
CCC1CN(C(=O)c2ccc(=O)[nH]n2)CCC(=O)N1Cc1ccccc1 (centres unmarked) | 4.082
O=C1CCC(C(=O)Nc2ccc(=O)n(Cc3ccccc3Cl)c2)N1 (centres unmarked) | 8.537
CN(CCCc1nccn1C)c1nccc(-c2cc(C(=O)O)ccn2)n1 | 7.463
c1ccc(-n2ccc(CN3CCCCC3Cn3cncn3)n2)cc1 (centres unmarked) | 5.143
Cc1ccc(NC(=O)C(C)n2ccc(C(F)(F)F)n2)nc1 (centres unmarked) | 6.211
CN1CCN(C(=O)CCn2ncc3ccccc32)CC(C(N)=O)C1 (centres unmarked) | 1.13
Cn1cc(Cl)c(CN2CCn3nc(C(=O)N4CCCC4)cc3C2)n1 | 9.091
CC(C)OCCCNC(=O)CS(=O)(=O)Cc1ccc(C(C)C)cc1 | 4
CN(Cc1nc(N2CCCC2)ncc1-c1ccncc1)C(=O)C(C)(C)C | 19.7
COc1ccc2c(ccn2CC(=O)NC[C@@H]2CCCN3CCCC[C@H]23)c1 | 10.89
O=C1CO[C@H]2CN(Cc3cccc(F)c3F)C[C@@H]2N1C1CCOCC1 | 2.281
OCCN1CCC(CNCc2ccc(N3CCCCC3)cc2)CC1 | 4.124
CC1CN(C)c2ccccc2N(C(=O)c2ccc(=O)n(C)c2)C1 (centres unmarked) | 5.263
COc1cccc(CN(C)CCCn2cnc3c(N)ncnc32)c1 | 16
CC1CN(C)CCN1CC(=O)NCCOc1cccc(F)c1 (centres unmarked) | 5.539
O=C1CC2(CCN(CC3CC3)C2)CN1c1cccc(F)c1 (centres unmarked) | 3.39
Cc1nnc2n1CCN(CCOc1cccc(C#N)c1)C2 | 0.5634
Cc1cc(C)n(C2CN(CCC(=O)NCCc3ccccc3)C2)n1 | 22.11
Cc1ncsc1-c1cc(C(=O)NCCO)ccn1 | 2
Cc1cc(NCCS(C)(=O)=O)nc2ccccc12 | 4.433
Cn1ncc2c(N3CCC(CC(=O)N4CCCC4)CC3)ncnc21 | 5.752
CC(C)c1nc2c(n1C)CCN(CC(=O)Nc1nccs1)C2 | -4.906
CC(C)(C)c1cccc(OCC(=O)NS(=O)(=O)c2cccnc2)c1 | 5.294
Cc1n[nH]c(C)c1CNc1nc(-c2ccco2)nc2c1CCNCC2 | 19.58
O=C(Cc1cccc(F)c1)N1CCn2cc(Cn3cccn3)nc2C1 | 14.71
CCC(NC(=O)c1cc(NC(C)=O)ccc1Cl)c1cc(C)ccn1 (centres unmarked) | 11.9
Cn1cc(CN2CCC3(CCCCN3S(C)(=O)=O)CC2)cn1 | 7.563
CCOc1ccc(NC(=O)c2cc3c([nH]c2=O)CCC3)cc1 | 2.959
O=C(NCC1CCS(=O)(=O)C1)c1cccc(CN2CCCC2)c1 (centres unmarked) | 0
Cc1cnn(CC(C)NCc2nc(-c3ccsc3)oc2C)c1 (centres unmarked) | 5.634
Cc1csc(CN2CC[C@@](O)(C3CCOCC3)[C@H](C)C2)n1 | -0.5181
COc1cccc([C@@]2(O)CC[C@@H]3CN(C(=O)c4ccn(C)n4)C[C@@H]32)c1 | -2.825
COc1nc2c(cc1C(=O)NCCc1nc3c(s1)CCC3)CCC2 | 3.804
CCCn1nc(-c2nc(C3CC3)no2)ccc1=O | 3.448
O=C(c1cnccn1)N1CCCC(c2cccc(-n3ccnc3)n2)C1 (centres unmarked) | 5.495
Cc1nc(C(C)(C)NC(=O)Nc2cccc(C#N)c2)no1 | 1.653
O=C(Cc1ccc(F)cc1F)NCC(=O)Nc1ccccn1 | 2.591
O=C(c1ccoc1)N1CCOCC2(CCN(Cc3cccs3)C2)C1 (centres unmarked) | 4.762
CCOCCC(=O)N1C[C@H]2CC[C@@H]1CN(Cc1ccncc1)C2 | 3.03
CN(C)S(=O)(=O)c1ccc(CNc2ccc(Cl)cn2)cc1 | -2.762
CCc1cnc(N2CC[C@H]3[C@@H]2CCC(=O)N3c2ccccc2)nc1 | 2.21
Cc1ccc(CN(CCN(C)C)Cc2ccnn2C2CCCCO2)o1 (centres unmarked) | -0.7752
O=C(c1cnccn1)N1CCC2(CC1)CC(Oc1ccccc1)CO2 (centres unmarked) | 10.4
c1csc(-c2noc(CCCNC3CCc4ncnn4C3)n2)c1 (centres unmarked) | 4.459
CN(Cc1ccco1)Cc1ccccc1CNC(=O)c1ccc[nH]1 | 0
NC(=O)NC(=O)CNc1cccc(C(=O)c2ccccc2)c1 | 1.667
CCn1cnnc1C1CCN(C(=O)COc2ccccc2)CC1 | -1.132
N#CC1COCCN1S(=O)(=O)c1ccc(F)c(Br)c1 (centres unmarked) | 1.724
COc1ccccc1CC(=O)N1CCC(NCc2cccnc2)CC1 | 1.916
Cc1nnc(NC(=O)NCCN(C(=O)OC(C)(C)C)C2CC2)s1 | 6.077
Cc1ccc(N2CCC3(CCCN3Cc3ccn(C)n3)CC2)nn1 | 6.952
Nc1cc2c(nn1)CCN(C(=O)c1ccc(Oc3cccnc3)cc1)C2 | 10.34
Cn1ccnc1CN1CCOC(Cn2cccn2)C1 (centres unmarked) | 1.69
CCc1cc(CN(C)C(=O)C2CC(=O)N(c3cccc(O)c3)C2)on1 (centres unmarked) | 0.5025
CC(=O)c1ccc(OCC(=O)NS(=O)(=O)c2ccc(C)s2)cc1 | 2.857

For reference, 9 entries once more:

- COc1cccc([C@@]2(O)CC[C@@H]3CN(C(=O)c4ccn(C)n4)C[C@@H]32)c1 : -2.825%
- O=C(c1ccoc1)N1CCOCC2(CCN(Cc3cccs3)C2)C1 (centres unmarked) : 4.762%
- CN(C)S(=O)(=O)c1ccc(CNc2ccc(Cl)cn2)cc1 : -2.762%
- CN(CCCc1nccn1C)c1nccc(-c2cc(C(=O)O)ccn2)n1 : 7.463%
- CN(Cc1cn2c(n1)CN(Cc1ccsc1)CC2)Cc1ccco1 : 5.102%
- COCCNC(=O)c1cc(S(=O)(=O)N2CCCCC2)cs1 : 2.479%
- CC1CN(C)c2ccccc2N(C(=O)c2ccc(=O)n(C)c2)C1 (centres unmarked) : 5.263%
- CCc1cnc(N2CC[C@H]3[C@@H]2CCC(=O)N3c2ccccc2)nc1 : 2.21%
- O=C1CO[C@H]2CN(Cc3cccc(F)c3F)C[C@@H]2N1C1CCOCC1 : 2.281%